Measured values reported in PubChem BioAssay AID1259415 (National Center for Advancing Translational Sciences (NCATS), 2018).
Hit rate of the full screen: of about 410,000 compounds, about 18,000 (4.4%) were called active. The shares of active, inactive and inconclusive entries below differ from those in the screen. No stated cut-off is given here; in the data, active means activity change below about -60%; inconclusive means no clear call, values can overlap the other calls; inactive means above about -39%.
On the % scale 0 is the no-effect control and ±100 the full control effect.

Assay: qHTS Assay for inhibitors of the human cytomegalovirus (HCMV)
Conditions: HFF cells, HCMV-luciferase reporter, 72 h; at 57.5 µM; active compounds read low
In short: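 Steps: HFFs plated, 16 h 37C; compounds added; HCMV-luciferase added to MOI 1 PFU/cell; 72 h 37C; OneGlo reagent, 5 min room temperature; luminescence read, normalized to controls.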
In the case of `O=C(Cc1ccc(-n2c(=O)[nH]c3ccsc3c2=O)cc1)N1CCN(c2ccc(Cl)cc2)CC1`, the activity change, negative = inhibition was inconclusive: -56.7%.
In the case of `C/C(CC(=O)Nc1ccc(C)c(Cl)c1)=N\NC(=O)c1ccncc1`, the activity change, negative = inhibition was inconclusive: -58.9%.
For `CC(=O)c1cccc(NC(=O)C2CCCN(C(=O)c3cnn(-c4ccccc4)c3-n3cccc3)C2)c1` (stereo unspecified), the activity change, negative = inhibition was inactive: -19.1%.
In the case of `COc1ccc(CC(C)Nc2cccc(F)c2)cc1` (stereo unspecified), the activity change, negative = inhibition was inconclusive: -42.1%.
In the case of `O=C(CCn1c2c(c3ccccc31)CCCC2)NNC(=O)c1ccc([N+](=O)[O-])cc1`, the activity change, negative = inhibition was inactive: -10.4%.
In the case of `COc1ccc(C(=O)NCc2cccnc2)cc1S(=O)(=O)N1CCCc2ccccc21`, the activity change, negative = inhibition was inconclusive: -49.4%.
With `Cc1cc(Nc2nc(Cl)c(Cl)cc2Cl)n(-c2ccccc2)n1` the activity change, negative = inhibition was inactive: 33.8%.
For `Cc1cc2ccccc2c(=O)n1CC(=O)NCC(=O)N1CCN(c2cccc(Cl)c2)CC1`, the activity change, negative = inhibition was inconclusive: -44.7%.
In the case of `O=C(c1ccc(OCC2CCCO2)cc1)N1CCc2ccccc2C1` (stereo unspecified), the activity change, negative = inhibition was inactive: 118%.
With `C[C@H](O)C#Cc1ccc2c(c1)O[C@@H](CN(C)Cc1ccc(-c3ccccc3)cc1)[C@H](C)CN([C@@H](C)CO)S2(=O)=O` the activity change, negative = inhibition was active: -81.8%.
For `COc1cccc(NCCC(=O)c2cccc([N+](=O)[O-])c2)c1`, the activity change, negative = inhibition was inconclusive: -43.2%.
In the case of `Cn1nccc1C(=O)NCCN1C(=O)OC(C)(C)C1(C)O` (stereo unspecified), the activity change, negative = inhibition was inconclusive: -41.8%.
With `O=C(CN1C(=O)c2cccnc2Oc2ccc(Cl)cc21)NCCc1ccccc1` the activity change, negative = inhibition was inconclusive: 0%.
For `Cc1ccc(Cl)cc1NC(=S)N1CCC(c2ccccc2)C1` (stereo unspecified), the activity change, negative = inhibition was inconclusive: -42.9%.
With `O=C1C=C(Nc2cccc(Cl)c2)CC(c2ccco2)C1` (stereo unspecified) the activity change, negative = inhibition was inconclusive: -43.8%.
In the case of `CCOc1ccc(NC(=O)c2ccccn2)cc1`, the activity change, negative = inhibition was inconclusive: -58.7%.
For `CC(C)(C)C(=O)Cn1c(=O)n(-c2ccccc2)c(=O)c2c3c(sc21)CCC3`, the activity change, negative = inhibition was inactive: -13.7%.
In the case of `CCCc1cc(=O)[nH]c2nnc(SCC(=O)Nc3ccc(C(C)=O)cc3)n12`, the activity change, negative = inhibition was inactive: -37.3%.
In the case of `CNc1c([N+](=O)[O-])cnn1-c1cccc(Cl)n1`, the activity change, negative = inhibition was inconclusive: -41.5%.
For `COc1ccnc(NCc2cccnc2)c1C#N`, the activity change, negative = inhibition was inconclusive: -46.3%.
For `CCOC(=O)N1CCN(Cc2nc(C3CC3)no2)CC1`, the activity change, negative = inhibition was inactive: 79.2%.
For `COc1ccc(CN2CCCC(C(=O)c3ccc(Cl)cc3)C2)c(O)c1` (stereo unspecified), the activity change, negative = inhibition was inactive: 51.7%.
With `C=CCc1ccccc1OCc1nc2ccccc2n1CC` the activity change, negative = inhibition was inactive: -28.5%.
In the case of `CN=C1S/C(=C\c2ccc(N3CCOCC3)cc2C)C(=O)N1C`, the activity change, negative = inhibition was inactive: 54.1%.
In the case of `CC(=O)N(O)CCCCCNC(=O)CCC(=O)N(O)CCCCCNC(=O)CCC(=O)N(O)CCCCCN`, the activity change, negative = inhibition was inconclusive: -45.4%.
In the case of `CCN(Cc1ccccc1)C(=O)Cn1c(=O)n(-c2cccc(C)c2)c(=O)c2c1c1cc(C)ccc1n2C`, the activity change, negative = inhibition was inactive: -17.8%.
In the case of `O=C(NNC(=S)NCc1ccccc1)c1ccccc1OC(F)F`, the activity change, negative = inhibition was inactive: -38.8%.
With `CCc1ccc(OCCCCCn2ccnc2)cc1` the activity change, negative = inhibition was inconclusive: -50.2%.
With `Cc1ccc(S(=O)(=O)c2nnn3c2nc(NCCc2ccccc2)c2sccc23)cc1` the activity change, negative = inhibition was active: -65.3%.
For `O=C(Nc1cccn(Cc2c(Cl)cccc2Cl)c1=O)c1c(Cl)cccc1Cl`, the activity change, negative = inhibition was inconclusive: -44.6%.
With `CC(NC(=O)CSc1cccc(C(F)(F)F)c1)c1ccccc1` (stereo unspecified) the activity change, negative = inhibition was inconclusive: -55.8%.
With `Cc1ccc(S(=O)(=O)Oc2ccccc2/C=N/NC(N)=S)cc1` the activity change, negative = inhibition was inconclusive: -43.9%.
In the case of `COc1ccccc1CNC(=O)c1ccc(-c2ccccc2Cl)o1`, the activity change, negative = inhibition was inconclusive: -42.2%.
In the case of `CCN(C(=O)CCC(=O)N(CC)c1ccccc1)c1ccccc1`, the activity change, negative = inhibition was inconclusive: -43.6%.
In the case of `CCOC(=O)CNC(=S)N(Cc1ccco1)Cc1ccccc1Cl`, the activity change, negative = inhibition was inactive: 17.5%.
In the case of `CCOc1ccc(N(C)S(=O)(=O)c2cc(-c3cc(C)no3)ccc2C(C)C)cc1`, the activity change, negative = inhibition was inconclusive: -58.5%.
In the case of `C[C@@H](NC(=O)OC(C)(C)C)c1nnc(S(=O)(=O)Cc2ccccc2)o1`, the activity change, negative = inhibition was active: -105%.
In the case of `Cc1ccc(SCCNC(=O)/C=C/c2ccccc2Cl)cc1`, the activity change, negative = inhibition was inconclusive: -46.2%.
With `O=[N+]([O-])c1cccc(NC(=S)NCc2ccncc2)c1` the activity change, negative = inhibition was inconclusive: -52.3%.
With `O=C(CCCc1ccccc1)N=C1SC2CS(=O)(=O)CC2N1c1ccccc1F` (stereo unspecified) the activity change, negative = inhibition was inactive: -27.1%.
With `CCN(C(=S)NCCOC)c1cccc2ccccc12` the activity change, negative = inhibition was inconclusive: -47.6%.
In the case of `C[n+]1cc(C(=O)N2CCCCC2)ccc1/C=C/c1c[nH]c2ccccc12`, the activity change, negative = inhibition was inactive: 36.6%.
With `COc1ccc(Cn2cc(C(=O)c3ccc(C)c(C)c3)c(=O)c3ccccc32)cc1` the activity change, negative = inhibition was inconclusive: -48.5%.
For `COc1ccc(NC(=O)CCCn2c(=O)c3sccc3n(Cc3cccc(C)c3)c2=O)cc1`, the activity change, negative = inhibition was inconclusive: -56.3%.
For `COc1cccc(CC(=O)N2CCCC(CCC(=O)N3CCN(c4ccccn4)CC3)C2)c1` (stereo unspecified), the activity change, negative = inhibition was inconclusive: -43.1%.
With `COCCCNC(=O)Cn1c(=O)nc(-c2ccccc2)c2ccccc21` the activity change, negative = inhibition was inactive: 3.59%.
In the case of `CC1(Cc2ccc(F)cc2)C(=O)Nc2c(Cl)cccc21` (stereo unspecified), the activity change, negative = inhibition was inconclusive: -58.5%.
In the case of `CC1CC(C)(C)OC(c2ccc(C(C)C)cc2)O1` (stereo unspecified), the activity change, negative = inhibition was inactive: -14.1%.
With `COc1ccc(CNC(=O)Nc2ccc3c(c2)N(C)C(=O)c2ccccc2S3)cc1OC` the activity change, negative = inhibition was inconclusive: -48.8%.
For `COc1ccc(C(=O)Cn2c(Cl)nc3c2c(=O)n(C)c(=O)n3C)cc1`, the activity change, negative = inhibition was inconclusive: -42.5%.
With `COn1c(-c2ccccc2)nc2c1CCc1c-2no[n+]1[O-]` the activity change, negative = inhibition was active: -80.1%.
In the case of `CC(=O)NC(CC(=O)OCC(=O)N1CCN(S(=O)(=O)c2ccc(C)cc2C)CC1)c1ccccc1` (stereo unspecified), the activity change, negative = inhibition was inconclusive: -40.3%.
For `Cc1ccccc1NC(=O)CN1C(=O)NC(C)(CCc2ccccc2)C1=O` (stereo unspecified), the activity change, negative = inhibition was inconclusive: -42.8%.
With `CCc1cc(=O)oc2c3c(cc(OCC(=O)NCc4cccnc4)c12)OC(C)(C)CC3` the activity change, negative = inhibition was inactive: -27%.
In the case of `O=[N+]([O-])c1ccc(O)c(Nc2ncnc3ccc(Br)cc23)c1`, the activity change, negative = inhibition was inactive: -20.3%.
With `CCOc1ccc(NS(=O)(=O)c2cccc(C(=O)N3CCN(C/C=C/c4ccccc4)CC3)c2)cc1` the activity change, negative = inhibition was inconclusive: -53.8%.
